Assay results as given in paper PMC11304230.
These are yes or no findings as the source states them, for the method shown. In cells and extracts the contact can be indirect. These calls come from enrichment with a bait or labelling near it, and not all partners need be listed.

Amino acid sequences for entries named in this document (tags omitted). Residues count along the entry.
UniProt Q6X4U4, residues 24-206: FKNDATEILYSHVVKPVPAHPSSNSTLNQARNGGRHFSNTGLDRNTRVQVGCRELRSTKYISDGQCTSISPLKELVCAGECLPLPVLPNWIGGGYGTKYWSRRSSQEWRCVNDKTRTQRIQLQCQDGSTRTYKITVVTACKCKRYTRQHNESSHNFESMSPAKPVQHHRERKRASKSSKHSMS
UniProt O14646: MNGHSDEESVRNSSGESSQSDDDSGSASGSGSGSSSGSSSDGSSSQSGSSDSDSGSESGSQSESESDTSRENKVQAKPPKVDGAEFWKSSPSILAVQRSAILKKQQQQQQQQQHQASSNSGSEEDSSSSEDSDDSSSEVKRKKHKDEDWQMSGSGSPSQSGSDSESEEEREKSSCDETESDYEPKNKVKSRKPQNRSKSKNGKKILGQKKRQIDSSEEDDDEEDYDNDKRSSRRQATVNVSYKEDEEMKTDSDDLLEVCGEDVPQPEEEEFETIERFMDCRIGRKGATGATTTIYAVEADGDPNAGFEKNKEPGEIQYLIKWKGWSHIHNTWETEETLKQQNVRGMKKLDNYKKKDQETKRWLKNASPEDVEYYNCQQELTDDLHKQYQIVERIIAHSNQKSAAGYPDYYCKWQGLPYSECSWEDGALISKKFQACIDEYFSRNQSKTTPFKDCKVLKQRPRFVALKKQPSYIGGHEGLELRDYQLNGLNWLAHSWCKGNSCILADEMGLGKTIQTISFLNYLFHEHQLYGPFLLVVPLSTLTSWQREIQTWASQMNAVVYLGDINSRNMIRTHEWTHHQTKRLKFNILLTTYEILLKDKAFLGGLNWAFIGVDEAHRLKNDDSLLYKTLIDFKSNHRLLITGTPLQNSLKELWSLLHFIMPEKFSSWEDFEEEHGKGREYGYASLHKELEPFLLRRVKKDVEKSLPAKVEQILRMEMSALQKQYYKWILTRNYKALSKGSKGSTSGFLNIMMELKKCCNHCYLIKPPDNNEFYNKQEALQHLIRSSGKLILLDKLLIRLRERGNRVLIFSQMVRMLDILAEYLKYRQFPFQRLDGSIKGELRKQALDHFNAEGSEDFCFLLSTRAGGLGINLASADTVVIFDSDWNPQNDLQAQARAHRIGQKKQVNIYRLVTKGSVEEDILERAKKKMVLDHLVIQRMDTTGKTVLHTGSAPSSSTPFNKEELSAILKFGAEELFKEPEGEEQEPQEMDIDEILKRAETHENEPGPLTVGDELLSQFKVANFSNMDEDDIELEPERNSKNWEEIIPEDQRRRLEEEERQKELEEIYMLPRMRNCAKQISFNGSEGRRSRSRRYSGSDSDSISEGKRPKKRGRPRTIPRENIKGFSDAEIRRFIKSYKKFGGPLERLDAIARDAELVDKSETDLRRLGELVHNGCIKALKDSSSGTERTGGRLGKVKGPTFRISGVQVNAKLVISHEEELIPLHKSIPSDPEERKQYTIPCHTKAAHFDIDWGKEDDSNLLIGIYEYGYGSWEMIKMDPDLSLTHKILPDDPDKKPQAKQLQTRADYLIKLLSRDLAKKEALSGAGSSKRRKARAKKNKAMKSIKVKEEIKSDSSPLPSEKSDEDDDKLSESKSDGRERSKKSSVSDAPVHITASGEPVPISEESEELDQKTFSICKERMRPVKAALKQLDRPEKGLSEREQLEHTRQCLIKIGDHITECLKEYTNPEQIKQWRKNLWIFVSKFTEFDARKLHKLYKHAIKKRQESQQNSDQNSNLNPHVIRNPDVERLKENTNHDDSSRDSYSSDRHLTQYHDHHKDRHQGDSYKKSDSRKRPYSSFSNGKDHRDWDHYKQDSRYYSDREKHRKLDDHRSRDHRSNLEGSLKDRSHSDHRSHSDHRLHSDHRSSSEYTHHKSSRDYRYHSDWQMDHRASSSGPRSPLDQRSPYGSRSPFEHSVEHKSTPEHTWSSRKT

Molecular target: FLAG-tagged SOSTDC1 stably overexpressed in SUM159 cells (UniProt Q6X4U4)
Assay: affinity purification with mass spectrometry; co-IP samples of SUM159-CTRL or SOSTDC1 and MDA-MB-231-CTRL or SOSTDC1 cells; Q Exactive, Maxquant

binding: binds
Substance: Endogenous CHD1 of SUM159 cells (from UniProt O14646 1-1710)
